Test results taken from the supplement of paper PMC10398353.
Values joined by “and” are separate entries in the source; they are usually repeats but may differ in a detail not shown here. Equal entries are not always repeated. Structures can show the parent of a compound that is named as a salt. ± gives the standard deviation of the averaged measurements. The list shows a part of the results. The data scatter; read single values as rough.

tested on: Salmonella enterica serovar Typhimurium ST313 D23580; assay: normalized bacterial growth (OD600 20 h minus 0 h, interquartile-mean normalized) (fraction of plate interquartile mean); higher = more bacterial growth (less inhibition); conditions: LPM (pH 5.8, low phosphate, low Mg2+), concentration: 10 µM, temperature: 37 °C

| Structure (SMILES) | normalized bacterial growth |
| --- | --- |
| COc1cc(OC)c(-c2c(OC)cc(OC)cc2OC)c(OC)c1 | 0.938 |
| CC(C)(C)NCC(O)c1cc(O)cc(O)c1 (stereo not given) | 1.01 |
| CC(C)(C)NCC(O)c1cc(O)cc(O)c1 (stereo not given) [Terbutaline hemisulfate] | 1.24 |
| COc1ccc2c(c1)O[C@@H]1COc3cc(OC)c(OC)cc3[C@@H]1C2=O | 1.03 |
| NS(=O)(=O)c1cc2c(cc1Cl)NC(CC1CCCC1)NS2(=O)=O (stereo not given) [Cyclopenthiazide] | 1.04 |
| CCOC(=O)[N-]c1c[n+](N2CCOCC2)no1 [Molsidomine] | 0.886 ± 0.027 |
| CC[N+](CC)(CC)CCOc1cccc(OCC[N+](CC)(CC)CC)c1OCC[N+](CC)(CC)CC [Gallamine triethiodide] | 0.867 |
| CC(C)NCC(O)c1ccc(O)c(O)c1 (single isomer, unassigned; (-)) [(-)-Isoproterenol hydrochloride] | 1.22 |
| O=C1C(O)=C([C@H]2CC[C@H](c3ccc(Cl)cc3)CC2)C(=O)c2ccccc21 [Atovaquone] | 0.934 |
| O=C1C(O)=C([C@H]2CC[C@H](c3ccc(Cl)cc3)CC2)C(=O)c2ccccc21 | 1.07 |
| NCCNS(=O)(=O)c1cccc2c(Cl)cccc12 [A3 hydrochloride] | 0.959 |
| Cc1ccccc1C(OCCN(C)C)c1ccccc1 (stereo not given) [Orphenadrine hydrochloride] | 0.793 |
| Cc1ccccc1C(OCCN(C)C)c1ccccc1 (stereo not given) | 1.19 |
| CC(=O)OC(C)(C)[C@@H]1Cc2cc3ccc(=O)oc3cc2O1 | 0.935 |
| O=C1CCc2ccc(OCCCCN3CCN(c4cccc(Cl)c4Cl)CC3)cc2N1 | 0.921 |
| CN(C)CCOC(c1ccc(Cl)cc1)c1ccccn1 (stereo not given) | 1.01 |
| NC(=O)NC1NC(=O)NC1=O (stereo not given) | 0.859 |
| C[C@@H]1CC[C@@]23CCC4(C)[C@@](C=CC5[C@@]6(C)CCC(=O)C(C)(C)C6CC[C@]54C)(OC2=O)C3[C@H]1C (stereo not given in full) | 0.982 |
| CCCCCCCCCCCC1=C(O)C(=O)C=C(O)C1=O | 1.08 |
| COc1c2ccoc2cc2oc(=O)ccc12 | 0.951 |
| COC(=O)C1=C(C)NC(C)=C(C(=O)OCC(C)C)C1c1ccccc1[N+](=O)[O-] (stereo not given) | 0.665 |
| O=c1cc(-c2ccc(O)cc2)oc2cc(O)ccc12 | 1.07 |

| Structure (SMILES) | normalized bacterial growth |
| --- | --- |
| COC(=O)C1=C(C)NC(C)=C(C(=O)OCCN(C)Cc2ccccc2)C1c1cccc([N+](=O)[O-])c1 (stereo not given) [Nicardipine hydrochloride] | 0.807 |
| Cc1ccccc1CNc1ncnc2c1ncn2[C@@H]1O[C@H](CO)[C@@H](O)[C@H]1O [Metrifudil] | 0.852 |
| CC(C)=CCc1c2c(c3occ(-c4ccc(O)cc4)c(=O)c3c1O)C=CC(C)(C)O2 | 1.41 |
| COC(=O)[C@H]1[C@H]2C[C@@H]3c4[nH]c5cc(OC)ccc5c4CCN3C[C@H]2C[C@@H](OC(=O)/C=C/c2cc(OC)c(OC)c(OC)c2)[C@@H]1OC [Rescinnamin] | 0.695 |
| COc1ccc([C@@H]2OC[C@@H]3[C@H]2CO[C@H]3c2ccc(OC)c(OC)c2)cc1OC | 0.883 |
| Cc1cnc(C(=O)NCCc2ccc(S(=O)(=O)NC(=O)NC3CCCCC3)cc2)cn1 [Glipizide] | 1.12 |
| C=C1C2CC[C@@]3(C)[C@H](c4ccoc4)OC(=O)C[C@]13O[C@H]1CC(=O)C(C)(C)[C@H](C(O)C(=O)OC)[C@@]21C (stereo not given in full) | 0.968 |
| CCc1ccc2c(O)c3c(cc2c1C(=O)OC)C(=O)c1c(O)ccc(O)c1C3=O | 0.869 |
| CC(C)NC[C@H](O)COc1cccc2[nH]ccc12 [S(-)-Pindolol] | 0.924 |
| CC(=O)O[C@H]1C[C@@H](OC(C)=O)C(C)(C)[C@@H]2C[C@@H](OC(C)=O)[C@@]3(C)C4=CC(=O)O[C@@H](c5ccoc5)[C@]4(C)CC[C@@H]3[C@@]12C | 0.777 |
| O=C1[C@H](CC[C@H](O)c2ccc(F)cc2)[C@@H](c2ccc(O)cc2)N1c1ccc(F)cc1 | 0.695 |
| COc1ccccc1N1CCN(CCCCNC(=O)c2ccc3ccccc3c2)CC1 | 0.672 and 0.606 |
| CC(O)(P(=O)(O)O)P(=O)(O)O | 0.944 |
| CCN(CC)CCOc1ccc(C(=C(Cl)c2ccccc2)c2ccccc2)cc1 | 1.45 |
| CC1(C)CC[C@]2(C(=O)O)CC[C@]3(C)C(=CCC4[C@@]5(C)CC[C@@H](O)C(C)(C)C5CC[C@]43C)C2C1 (stereo not given in full) | 1.15 |
| COc1ccc(NC(=O)c2ccc(-c3ccc(-c4noc(C)n4)cc3C)cc2)cc1N1CCN(C)CC1 | 1.46 |
| CN(C)[C@@H]1C(O)=C(C(=O)NCNCCCC[C@H](N)C(=O)O)C(=O)[C@@]2(O)C(O)=C3C(=O)c4c(O)cccc4[C@@](C)(O)[C@H]3C[C@@H]12 [Lymecycline] | 0.941 |
| CCCCNc1ccc(C(=O)OCCN(C)C)cc1 [Tetracaine hydrochloride] | 1.15 |
| COc1ccc2c(c1)CC[C@@H]1[C@@H]2CC[C@]2(C)[C@@H](NCCCCCCN3C(=O)CCC3=O)CC[C@@H]12 | 0.692 |
| CN1CCOC(c2ccccc2)c2ccccc2C1 (stereo not given) [Nefopam hydrochloride] | 0.95 |
| CN1CCOC(c2ccccc2)c2ccccc2C1 (stereo not given) | 0.883 |
| N=C(N)NCCCCN [Agmatine sulfate] | 1.15 |

| Structure (SMILES) | normalized bacterial growth |
| --- | --- |
| CN1CCC(=C2c3ccccc3CCc3sccc32)CC1 | 1.13 |
| O=c1c2ccccc2nc2n1CCc1c-2[nH]c2ccccc12 | 1.1 |
| O=C(/C=C/C=C/c1ccc2c(c1)OCO2)N1CCCCC1 | 1 |
| CCC(=O)OCC(=O)[C@@]1(OC(=O)CC)[C@@H](C)C[C@H]2[C@@H]3CCC4=CC(=O)C=C[C@]4(C)[C@@]3(Cl)[C@@H](O)C[C@@]21C [Beclomethasone dipropionate] | 0.614 |
| CCC(=O)OCC(=O)[C@@]1(OC(=O)CC)[C@@H](C)C[C@H]2[C@@H]3CCC4=CC(=O)C=C[C@]4(C)[C@@]3(Cl)[C@@H](O)C[C@@]21C | 0.569 |
| COc1ccc(-c2cc(=O)c3c(O)cc(OC)cc3o2)cc1 | 0.608 |
| CC(C)=CCC/C(C)=C/CC/C(C)=C/CC/C(C)=C/CO | 0.934 |
| Oc1cc2c(c(Cl)c1O)CCNCC2c1ccccc1 (stereo not given) [()-6-Chloro-PB hydrobromide] | 0.941 |
| O=C(O)CCCCC1CCSS1 (stereo not drawn) [()-alpha-Lipoic Acid] | 0.904 |
| COCC(=O)O[C@]1(CCN(C)CCCc2nc3ccccc3[nH]2)CCc2cc(F)ccc2[C@@H]1C(C)C [Mibefradil dihydrochloride] | 1.29 |
| CCN(CC)Cc1cc(Nc2ccnc3cc(Cl)ccc23)ccc1O [Amodiaquin dihydrochloride dihydrate] | 1.08 |
| CCN(CC)Cc1cc(Nc2ccnc3cc(Cl)ccc23)ccc1O | 1.02 |
| COc1ccccc1N1CCN(CCCNc2cc(=O)n(C)c(=O)n2C)CC1 [Urapidil hydrochloride] | 1.04 |
| CN/C(=N\c1ccc(C2=NNC(=O)CC2C)cc1)NC#N (stereo not given) | 1.05 |
| OC[C@H]1O[C@@](CO)(O[C@H]2O[C@H](CO)[C@@H](O)[C@H](O)[C@H]2O)[C@@H](O[C@H]2O[C@H](CO)[C@@H](O)[C@H](O)[C@H]2O)[C@@H]1O | 1.14 |
| O=C(CCCN1CCC(O)(c2cccc(C(F)(F)F)c2)CC1)c1ccc(F)cc1 [Trifluperidol hydrochloride] | 0.908 |
| COc1ccc(CCNC[C@@H](O)c2ccc(O)cc2)cc1OC [R(-)-Denopamine] | 1.09 |
| COc1ccc2c(c1)O[C@H]1c3ccc(OC)cc3OC[C@@H]21 | 1.12 |
| CC(C)NCC(O)c1cc(O)cc(O)c1 (stereo not given) [Metaproterenol hemisulfate] | 0.8 |
| CC(C)NCC(O)c1cc(O)cc(O)c1 (stereo not given) | 1.13 |
| O=[N+]([O-])c1cc2nc(O)c(O)nc2cc1[N+](=O)[O-] | 1.27 |
| CC(=O)/C(C)=N/O ["2,3-Butanedione monoxime"] | 0.537 |

Three records drawn at random from the list so far, as already listed:

| Structure (SMILES) | normalized bacterial growth |
| --- | --- |
| CCC(=O)OCC(=O)[C@@]1(OC(=O)CC)[C@@H](C)C[C@H]2[C@@H]3CCC4=CC(=O)C=C[C@]4(C)[C@@]3(Cl)[C@@H](O)C[C@@]21C | 0.569 |
| Oc1cc2c(c(Cl)c1O)CCNCC2c1ccccc1 (stereo not given) [()-6-Chloro-PB hydrobromide] | 0.941 |
| COc1ccc(CCNC[C@@H](O)c2ccc(O)cc2)cc1OC [R(-)-Denopamine] | 1.09 |

Further results follow.

| Structure (SMILES) | normalized bacterial growth |
| --- | --- |
| CCCCCCCCCCCCCCSCC(=O)O [Tetradecylthioacetic acid] | 1.1 |
| CCCn1cnc2c1c(=O)n(CCCCC(C)=O)c(=O)n2C [Propentofylline] | 1.05 |
| CC(C)(CO)Cc1cc(C(C)(C)C)c(O)c(C(C)(C)C)c1 | 0.343 |
| O=C(O)CN(CCN(CC(=O)O)CC(=O)O)CCN(CC(=O)O)CC(=O)O [Diethylenetriaminepentaacetic acid] | 0.144 |
| C#CCN(C)CCCOc1ccc(Cl)cc1Cl [Clorgyline hydrochloride] | 0.828 |
| O=C(O)CCNC(=O)c1ccc(/N=N/c2ccc(O)c(C(=O)O)c2)cc1 [Balsalazide Sodium] | 1.1 |
| C[n+]1ccccc1/C=N/O | 0.765 |
| O=c1cc(-c2ccc(O)c(O[C@@H]3O[C@H](CO)[C@@H](O)[C@H](O)[C@H]3O)c2)oc2cc(O[C@@H]3O[C@H](CO)[C@@H](O)[C@H](O)[C@H]3O)cc(O)c12 | 1.32 |
| CCC(C)n1ncn(-c2ccc(N3CCN(c4ccc(OCC5COC(Cn6cncn6)(c6ccc(Cl)cc6Cl)O5)cc4)CC3)cc2)c1=O (stereo not given) | 0.736 |
| COc1ccc(/C=C/C(=O)c2cc(O)ccc2O)cc1 | 0.747 |
| Cc1cccc(Nc2ccccc2C(=O)O)c1C | 1.06 |
| C=CCSCC=C | 0.905 |
| CN(CCOc1ccc(C[C@H](Nc2ccccc2C(=O)c2ccccc2)C(=O)O)cc1)c1ccccn1 | 1.14 |
| O=C1c2ccccc2C(=O)C1(O)C1(O)C(=O)c2ccccc2C1=O | 1.2 |
| CC(N)C(=O)OC(C)(C)Cc1ccc(Cl)cc1 (stereo not given) | 0.927 |
| CC(N)C(=O)OC(C)(C)Cc1ccc(Cl)cc1 (stereo not given) [Alaproclate hydrochloride] | 0.986 |
| C[C@H]1[C@H](OC(=O)CCC(=O)O)O[C@@H]2O[C@@]3(C)CC[C@H]4[C@H](C)CC[C@@H]1[C@@]24OO3 | 0.919 |
| O=C1OC(CN2CCOCC2)CN1/N=C/c1ccc([N+](=O)[O-])o1 (stereo not given) [Furaltadone hydrochloride] | 1.14 |
| O=C1OC(CN2CCOCC2)CN1/N=C/c1ccc([N+](=O)[O-])o1 (stereo not given) | 0.825 |
